Source: patent US20160279215A1, “NOVEL PEPTIDES AND COMBINATION OF PEPTIDES FOR USE IN IMMUNOTHERAPY AGAINST VARIOUS TUMORS” (immatics biotechnologies GmbH, priority 2015, published 2016)
For some assays here: Expression grades refer to the transcript from which the peptide derives; gene names, where given, were looked up from the sequence.

Key:
Design in all cases: species or system human
[1] = tested on: source genes of the peptides (mRNA) in tumor and normal tissue; assay: Expression profiling of source genes by RNAseq (target coverage); conditions: share of tumors with more than 1.5-fold over-expression vs highest-expressing relevant normal tissue; for Target coverage for source genes, AML (%): acute myeloid leukemia; for Target coverage for source genes, BRCA (%): breast cancer; for Target coverage for source genes, CLL (%): chronic leukemia (CLL); for Target coverage for source genes, OSCAR (%): esophageal cancer incl. gastric-oesophageal junction; for Target coverage for source genes, GBC_CCC (%): gallbladder adenocarcinoma and cholangiocarcinoma; for Target coverage for source genes, NHL (%): non-Hodgkin lymphoma; for Target coverage for source genes, OC (%): ovarian cancer; for Target coverage for source genes, SCLC (%): small cell lung cancer; for Target coverage for source genes, UBC (%): urinary bladder cancer; for Target coverage for source genes, UTC (%): uterine cancer; for Target coverage for source genes, MEL (%): melanoma
[2] = tested on: source genes of the peptides (mRNA) in tumor and normal tissue; assay: Expression profiling of source genes by Affymetrix microarrays (target coverage); conditions: over-expression = more than 1.5-fold higher expression on tumor vs. normal tissue with highest expression, gene with minimal coverage decisive; for Target coverage for source genes of selected peptides, BPHI/PCA (%): BPHI/PCA (prostate cancer) samples; for Target coverage for source genes of selected peptides, CRC (%): CRC tumor samples; for Target coverage for source genes of selected peptides, GB (%): GB tumor samples; for Target coverage for source genes of selected peptides, GC (%): GC tumor samples; for Target coverage for source genes of selected peptides, HCC (%): HCC tumor samples; for Target coverage for source genes of selected peptides, NSCLC (%): NSCLC tumor samples; for Target coverage for source genes of selected peptides, PC (%): PC tumor samples; for Target coverage for source genes of selected peptides, RCC (%): RCC tumor samples
[3] = Identification and label-free relative LC-MS quantitation of HLA-presented peptides on tumor and normal tissue samples (XPRESIDENT presentation profiles); conditions: for Additional entities of particular interest (presentation of selected peptides across entities): tumor entities on which the HLA-presented peptide was found, entity abbreviations defined in the title of Table 4B; for Entities of particular interest: entities where the peptide was over-presented on cancer samples compared to normal tissues

| Substance | Target coverage for source genes, AML (%) [1] | Target coverage for source genes, BRCA (%) [1] | Target coverage for source genes, CLL (%) [1] | Target coverage for source genes, OSCAR (%) [1] | Target coverage for source genes, GBC_CCC (%) [1] | Target coverage for source genes, OC (%) [1] | Target coverage for source genes, SCLC (%) [1] | Target coverage for source genes, UBC (%) [1] | Target coverage for source genes, UTC (%) [1] | Target coverage for source genes of selected peptides, BPHI/PCA (%) [2] | Target coverage for source genes of selected peptides, CRC (%) [2] | Target coverage for source genes of selected peptides, GB (%) [2] | Target coverage for source genes of selected peptides, GC (%) [2] | Target coverage for source genes of selected peptides, HCC (%) [2] | Target coverage for source genes of selected peptides, NSCLC (%) [2] | Target coverage for source genes of selected peptides, PC (%) [2] | Target coverage for source genes of selected peptides, RCC (%) [2] | Additional entities of particular interest (presentation of selected peptides across entities) [3] | Target coverage for source genes, MEL (%) [1] | Entities of particular interest [3] | also measured |
| --- | --- | --- | --- | --- | --- | --- | --- | --- | --- | --- | --- | --- | --- | --- | --- | --- | --- | --- | --- | --- | --- |
| 41: peptide found in NCAPG (gene looked up) (IVTEIISEI; listed as Homo sapiens) [compound 41] | I (<19% over-expression = I) | I (<19% over-expression = I) | I (<19% over-expression = I) | I (<19% over-expression = I) | I (<19% over-expression = I) | I (<19% over-expression = I) | II (20-49% = II) | I (<19% over-expression = I) | I (<19% over-expression = I) | I (<19% over-expression = I) | IV (>70% = IV) | III (50-69% = III) | III (50-69% = III) | I (<19% over-expression = I) | III (50-69% = III) | I (<19% over-expression = I) | I (<19% over-expression = I) | CLL, SCLC, UTC, GBC_CCC, AML, NHL |  |  | Target coverage for source genes, NHL (%) [1]: I (<19% over-expression = I) |
| 234: peptide found in NCAPG (gene looked up) (VLLNEILEQV; listed as Homo sapiens) [compound 234] | I (<19% over-expression = I) | I (<19% over-expression = I) | I (<19% over-expression = I) | I (<19% over-expression = I) | I (<19% over-expression = I) | I (<19% over-expression = I) | III (50-69% = III) | I (<19% over-expression = I) | I (<19% over-expression = I) | I (<19% over-expression = I) | IV (>70% = IV) | III (50-69% = III) | III (50-69% = III) | I (<19% over-expression = I) | III (50-69% = III) | I (<19% over-expression = I) | I (<19% over-expression = I) | CLL, SCLC, UBC, UTC, BRCA, AML, NHL | I (<19% over-expression = I) | GC, NSCLC, HCC, OC, MEL, RCC, CRC, PC, OSCAR | Target coverage for source genes, NHL (%) [1]: I (<19% over-expression = I) |
| 242: peptide found in CENPE (gene looked up) (KLQEEIPVL; listed as Homo sapiens) [compound 242] | I (<19% over-expression = I) | I (<19% over-expression = I) | I (<19% over-expression = I) | I (<19% over-expression = I) | I (<19% over-expression = I) | I (<19% over-expression = I) | I (<19% over-expression = I) | I (<19% over-expression = I) | I (<19% over-expression = I) | I (<19% over-expression = I) | II (20-49% = II) | III (50-69% = III) | II (20-49% = II) | I (<19% over-expression = I) | II (20-49% = II) | I (<19% over-expression = I) | I (<19% over-expression = I) | BRCA, MEL, NHL | I (<19% over-expression = I) | GB, NSCLC, CRC |  |
| 248: peptide found in CDK1 (gene looked up) (VLMQDSRLYL; listed as Homo sapiens) [compound 248] | I (<19% over-expression = I) | I (<19% over-expression = I) | I (<19% over-expression = I) | I (<19% over-expression = I) | I (<19% over-expression = I) | I (<19% over-expression = I) | I (<19% over-expression = I) | I (<19% over-expression = I) | I (<19% over-expression = I) | I (<19% over-expression = I) | IV (>70% = IV) | IV (>70% = IV) | IV (>70% = IV) | II (20-49% = II) | IV (>70% = IV) | III (50-69% = III) | II (20-49% = II) | CLL, UBC, UTC, AML, NHL | I (<19% over-expression = I) | NSCLC, CRC, PC | Target coverage for source genes, NHL (%) [1]: II (20-49% = II) |
| 252: peptide found in KIF4A (gene looked up) (SLMEKNQSL; listed as Homo sapiens) [compound 252] | I (<19% over-expression = I) | I (<19% over-expression = I) | I (<19% over-expression = I) | I (<19% over-expression = I) | I (<19% over-expression = I) | I (<19% over-expression = I) | II (20-49% = II) | I (<19% over-expression = I) | I (<19% over-expression = I) | I (<19% over-expression = I) | IV (>70% = IV) | III (50-69% = III) | III (50-69% = III) | I (<19% over-expression = I) | II (20-49% = II) | II (20-49% = II) | I (<19% over-expression = I) | AML | I (<19% over-expression = I) | NSCLC, OC, CRC, OSCAR, RCC |  |
